Values from PubChem BioAssay AID504795 (Drosophila RNAi Screening Center, 2011).
The reagents shown are a selection, not the whole library. 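Every listed dsRNA shows some phenotype; how reagents were selected for listing is not stated.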 Reagents against one gene are numbered here. Names joined by + are all predicted targets of the reagent.

- Aim: 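Genes required for normal axon extension and glial cell shape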 (primary screen)
- Cells: primary Drosophila neurons and glia
- Reagents: long dsRNA against Drosophila genes, 250 ng dsRNA per well
- Duration: one week
- Measured: 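Descriptive morphology terms assigned by visual inspection of live automated images of GFP-marked cells, taken one week after adding 250 ng dsRNA per well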

target gene,reagent,"phenotype seen, replicate 1","phenotype seen, replicate 2"
Ssdp (Sequence-specific single-stranded DNA-binding protein),1,too many neurite branches,
Hsp83 (Heat shock protein 83),1,too many neurite branches,
RhoU,1,axon bundles split apart,
Lcp65APsi (pseudo),1,sheet-like cell extensions,
fd102C (forkhead domain 102C),1,axon bundles split apart,
tor (torso),1,axon bundles split apart,
Ak1 (Adenylate kinase 1),1,axon bundles split apart,
Vha100-2 (Vacuolar H[+] ATPase 100kD subunit 2),1,axon bundles split apart,
wnd (wallenda),1,too many neurite branches,axon bundles split apart
Ir75c (Ionotropic receptor 75c),1,cell fragments present,
sav (salvador),1,axon bundles split apart,
ppk13 (pickpocket 13),1,axon bundles split apart,
CG17193,1,beaded; swollen axons,
loqs (loquacious),1,abnormal cell clusters,
Pfdn2 (Prefoldin 2),1,axon bundles split apart,
Ctr9,1,too many neurite branches,
simj (simjang),1,abnormal cell clusters,
CG12310,1,abnormal cell clusters,
M1BP (Motif 1 Binding Protein),1,abnormal cell clusters,
PIP4K (Phosphatidylinositol 5-phosphate 4-kinase),1,too many neurite branches,
dpr6 (defective proboscis extension response 6),1,reduced axon outgrowth,
dpr6 (defective proboscis extension response 6),2,reduced axon outgrowth,
CG15452,1,sheet-like cell extensions,
Adgf-B (Adenosine deaminase-related growth factor B),1,cell fragments present,
l(2)27Cb (retired record),1,abnormal cell clusters,
CG33474,1,abnormal cell clusters,
"Alg1 (ALG1, chitobiosyldiphosphodolichol beta-mannosyltransferase)",1,too many neurite branches,
CG12213,1,abnormal cell clusters,abnormal cell clusters
RnrL (Ribonucleoside diphosphate reductase large subunit),1,axon bundles split apart,
CG9581,1,sheet-like cell extensions,
BORCS7 + CG13430,1,beaded; swollen axons,
CG5853,1,abnormal cell clusters,
Polr1H (RNA polymerase I subunit H),1,sheet-like cell extensions,
eIF3e (eukaryotic translation initiation factor 3 subunit e),1,cell fragments present,beaded; swollen axons
RpL11 (Ribosomal protein L11),1,beaded; swollen axons,
SP (Sex Peptide),1,abnormal cell clusters,
CG14892,1,too many neurite branches,
RpL7 (Ribosomal protein L7),1,axon bundles split apart,axon bundles split apart
CG42673,1,too many neurite branches,
CG42673,2,too many neurite branches,
jp (junctophilin),1,sheet-like cell extensions,
CalpA (Calpain-A),1,too many neurite branches,
RnrS (Ribonucleoside diphosphate reductase small subunit),1,too many neurite branches,
fry (furry),1,sheet-like cell extensions,

Entries above whose gene name begins with L or l (3):
target gene,reagent,"phenotype seen, replicate 1","phenotype seen, replicate 2"
Lcp65APsi (pseudo),1,sheet-like cell extensions,
loqs (loquacious),1,abnormal cell clusters,
l(2)27Cb (retired record),1,abnormal cell clusters,
